Reference: the supplement of paper PMC3334620
Whole data set: some 33,000 sequences, median “E-score (-0.5 to 0.5)” near -8e-05, cut for the highest 2% near 0.23. Some of the results follow.

These sequences were tested against T1, Nrg2 (UniProt P38082) (assay: PBM E-score (8-mer binding enrichment) (E-score (-0.5 to 0.5)); higher = stronger / more preferred TF binding). Settings: protein concentration: 100 nM; construct: GST-full length.
T1 sequence: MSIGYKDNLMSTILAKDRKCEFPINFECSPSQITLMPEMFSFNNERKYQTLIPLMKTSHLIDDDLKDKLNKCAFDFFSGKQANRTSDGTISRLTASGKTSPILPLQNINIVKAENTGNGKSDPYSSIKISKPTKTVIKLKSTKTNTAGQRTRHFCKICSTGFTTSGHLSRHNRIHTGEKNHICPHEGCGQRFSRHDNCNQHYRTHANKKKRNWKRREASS
In short: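 PURExpress in vitro transcription/translation supplied GST-tagged yeast transcription factors, either full-length or DNA-binding domain. Applied at about 100-200 nM to universal all-10-mer Agilent arrays double-stranded by primer extension, the bound protein was detected with fluorescent anti-GST. E-scores, modified Wilcoxon-Mann-Whitney statistics, were given by the Universal PBM Analysis Suite to ungapped eight-base words pooled with their reverse complements after masliner normalisation.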

Sequence	PBM E-score
ATAAGGGG	0.132
ACTTATCA	0.00725
TAATGCCA	0.149
GCCTCAAC	-0.0603
CGATGCAG	0.0488
ATACTTAC	0.0563
GAATCAAA	0.114
ACTTCCTG	0.0859
AAGAAGAA	0.0224
GCGATATA	0.175
ATGTCGCA	0.11
ATACGCGC	0.0766
AGTCGTTG	-0.315
CGGAACAC	0.264
CAGAGGGA	-0.17
CCTACCGC	-0.219
AGGTGTTC	-0.118
CAGGGGGG	-0.282
AGCTATTG	-0.133
AACCGGCG	0.091
AGAGGGGA	-0.144
GTCTCACA	0.0449
GATACTAA	0.167
AAGTCATA	0.131
GATTGGAA	-0.0153

An excerpt of these results, as comma-separated lines.
Sequence,PBM E-score
AAGAAGAA,0.0224
AGTCGTTG,-0.315

Remaining list, next part

Sequence	PBM E-score
ACGCAAGA	0.147
ATGGAAAG	0.119
GCAACCGC	-0.0846
ACAGGTTG	-0.0144
CCGTTTCA	0.122
CAGTGTCA	-0.0093
CCACGCTA	-0.0892
CTCTACGA	0.0109
AGCCTCCG	-0.153
TACATAGA	0.0247
CGCGGAAA	0.0291
CAGCGACA	-0.0787
GACCCATC	-0.105
GAAACACA	-0.0169
CATTTCGG	-0.0406
CGCAGAAC	0.173
CTGCTGCA	-0.00138
ATCAAGAC	0.0473
AGTTTGAC	-0.104
CCACTTCC	0.0252
ACGGATAA	0.226
AGTCCTGG	-0.157
AGCACTCG	-0.088
CGCATCTC	-0.00501
ACCCGTCG	-0.139

Sequence	PBM E-score
AGGAAAGA	-0.0443
AACTTTGA	-0.0178
CAAAGATG	-0.0125
TCCTCGCA	-0.0336
CCATCCTC	-0.111
ACACAGAC	0.0481
CGAGGGCG	-0.0566
AGGTTAAA	-0.101
ACCATATC	0.0168
ATATATGG	0.23
AGTCTAAG	0.109
CAGCTTGA	-0.0115
ATTCTCAA	0.214
AGTACATA	0.046
GCAGTTCC	-0.0194
ACTCAGTG	-0.0144
CCTCGTCA	0.155
CCCTGTAA	0.294
CTAGTTGA	0.128
CTCACTAC	0.0227
AAAAAGCT	-0.0368
AATTAGAG	0.143
TATGCAAA	-0.0899
GGCCGACC	0.0556
AATGCATC	0.0166

Individual results from the results shown.
For PBM E-score, TCCTCGCA shows -0.0336
For PBM E-score, GCGATATA shows 0.175

Further results:

Sequence	PBM E-score
AGAATATA	-0.0647
AACGGGCA	-0.1
AAATGCTA	0.0225
AGGGTAAT	0.0972
ACGATTCA	0.0495
CGCTCCCC	-0.197
TCCTCAAA	-0.0847
GACAAAAC	0.274
ATTTATGC	-0.0629
TTAAGTAA	0.00414
CTAAGGAC	-0.0761
AGGCGTCA	-0.132
AGTGTATG	0.0501
CAGGTTCG	-0.0464
AATCGTCT	-0.0302
AGACTACA	0.0216
ACGCTTAG	-0.156
ATTCCGAG	0.142
AAGCATTC	0.0503
CGGGGACC	0.102
CTATTGAA	0.0144
ATATTCTG	0.0955
TCATACAA	0.138
CCAGCTCG	0.0153
CACTGGCA	-0.00684

Retrieved one by one from the list above:
Sequence	PBM E-score
ATAAGGGG	0.132
CTAGTTGA	0.128
AAGCATTC	0.0503
GATTGGAA	-0.0153
CAGCGACA	-0.0787

Next results follow:

Sequence	PBM E-score
CGGAGGCC	-0.162
CTTACGCA	-0.08
AATACGTC	0.145
CTAAGGTA	0.00228
ATTAGCGA	0.0813
ATTACATC	0.0257
ACTTGTCC	0.0857
AGATAAGG	-0.0277
TAGTGACA	0.145
GGTAGCTA	-0.233
ACAAGCCT	-0.131
AGGTATAT	0.0308
GTCTGCAA	-0.116
AGCGACCC	0.00901
ATTGTCAG	0.144
AGGGGATC	0.0237
ACTGTACC	-0.0875
CGTAATCC	-0.0966
GAGAGACA	0.00612
AGCCGCAG	-0.132
CGTACAGA	-0.05
GACGAATA	0.157
AAGGAATG	0.0282
AATATGAG	-0.0197
ATCTTCAA	0.132

Sequence	PBM E-score
CAGACTCG	-0.115
ACATTGAA	0.029
ATCTAGCC	-0.0644
GGGGCGCA	0.0245
ACACGCTC	0.0681
CCGCACCG	0.0134
ATTAGCTC	-0.0144
ATAACCTA	-0.0799
CTTGCCGA	-0.043
ACCTCAGC	-0.00482
ACCGTGAA	-0.0653
AGCCTACA	-0.167
AGGGCATG	0.0783
CACTCGCC	0.116
GGGCCTGA	-0.147
CCGGTACA	0.0503
CAACAGCC	0.00168
CACGAAGA	0.113
ATGTCATC	0.0149
ACAGGTGC	-0.0434
ACGTAGTA	-0.0284
ACGGGCGA	-0.0214
AGTGCCAG	-0.0144
ACTGATGG	-0.22
GGCCAGAA	0.103

Sequence	PBM E-score
CAGACGAA	0.252
CGCTTCGA	0.00635
CCGAGATA	0.191
CGAGCAAA	0.0887
AAACCGCG	0.266
TCCCGGGA	0.0255
ACTACTTA	-0.08
CTCTGGAA	-0.131
ACAACAAA	0.036
CCTCGGCA	-0.0447
AAGCACCG	-0.13
GCGCCTGA	0.15
CACTGGAC	0.0413
ATAGGGAT	0.0573
GTCACAAC	0.0831
CGACGGAA	0.0399
GCGAGGAC	-0.127
CTTGCTTC	0.00315
AGTTCATA	0.109
AGAAATCA	0.112
CCCCTAGA	0.117
CCACACAC	0.0611
CTCCGGAC	-0.0445
AACGCGCG	0.319
GGCAGCGA	-0.112

Sequence	PBM E-score
GGGATACA	0.0129
ATGGAAAT	0.141
GGTCTCGA	0.0782
GACGGTCA	-0.11
ACCGAGGC	-0.284
CTACGCAA	-0.0895
CCTAGCAG	-0.126
GTTGGTTA	0.0754
AGTTTACG	-0.0635
AGTCTTAT	-0.0873
CACCTGGG	-0.0933
AGTGATGG	-0.138
AGCCACGA	-0.0898
ATGGTAAC	0.166
CCATCGAC	0.0341
GAACGTCC	-0.0192
AACTATGA	0.0466
TAGAAAAA	-0.0763
AGGCCATA	-0.0391
ACTTAGTG	-0.0564
ATCGATAC	0.133
AGGATAAC	-0.135
GCCACGTA	-0.112
CCCGCAGC	-0.277
GGGAAATA	0.162

Sequence	PBM E-score
CTATCTGC	-0.0656
GGCAGTTA	-0.128
CAACGGCA	0.0862
GATCGCAA	0.224
CGCGGTCC	0.0454
CATGCTTC	-0.0521
AAATGAAC	0.0486
GACAGATA	0.173
GTCATTAA	0.25
CAGCTACG	-0.149
CGTTGGTA	-0.115
CTGTATTA	0.147
AGTCTCAT	-0.0971
CCCAGTTA	-0.0575
CACATGTA	0.111
ACCGCCCG	-0.137
AAGTCGGG	-0.101
ATAATATC	0.105
GACTTTGA	-0.0905
CCCAGTGA	-0.167
CTATTGGA	-0.00122
CTAGGGAA	-0.00067
CTCGACAC	-0.0495
ACATGCAC	0.0557
GACAGCCC	-0.099

Sequence	PBM E-score
CCGTAGGC	-0.184
GTCACCGA	0.102
CTGATTAC	0.133
GGATAGTA	0.177
TATTAGCA	0.18
ATACGGCC	0.0131
CGGACATA	0.0251
CCCCATCG	-0.0641
GAGATGAC	0.0187
GGTCGATA	-0.0501
CGACTCCA	-0.157
GTGGTGCA	-0.162
GCCGATCC	-0.11
GCCAAATA	0.0814
AACCAGAC	-0.0716
CCATCTGC	0.083
AGTGCAAC	0.0143
GTGTGGTA	-0.0596
GTGCTCGA	0.00554
AAACGCAA	0.161
GAGCATCC	-0.0314
CGCAATAC	0.231
CCGTCCAG	-0.081
CCGCGTAG	0.00103
TAACGCAA	0.0924

Sequence	PBM E-score
GATGATGC	-0.12
GTGCCATA	-0.145
GCTAAGCC	-0.151
ACACAGGC	0.0691
GAACGTTA	-0.19
GGATACTA	0.0405
AAGAGTGG	-0.194
GGAACCAA	0.118
GATCCCCC	-0.35
GCGCATAC	0.094
CATTACGG	-0.035
GGTCTAGA	-0.109
CACGGTAA	-0.109
CCGATATA	0.0102
GTTCCCAA	-0.104
CGCTAGCC	-0.255
CTCCTCAA	-0.246
AATTATTA	0.0775
CTCCCCAA	-0.0319
AGTTGCCG	0.0108
CCGTTCAG	0.00062
CTTAGGCC	-0.0245
ATCTAAAG	-0.0106
ACGTCTAA	0.0439
CCTTTTCG	-0.0149

Sequence	PBM E-score
CGCAACAC	0.141
GCGCAACC	0.209
AATCAAAA	0.0808
CCGCGCAC	0.019
GAGGCAGA	-0.0869
ACGTAGTC	-0.264
CAATTAAC	0.145
CCCGCCGG	-0.0661
ACGCAGCC	0.0811
AAAAGCCG	-0.0633
AAATTAGT	0.166
CCAGTGCC	-0.0983
ATTTTGCA	0.0542
AGCCGTAT	-0.0933
GACCGGCC	-0.202
CCTATAAA	-0.313
CGGGAAAA	0.0363
GCCGGCGA	-0.0379
GACAACAA	0.144
AGCGGAAG	-0.00932
AGTGAAGA	-0.00183
GAGTGCAC	-0.00313
AATTTTCC	0.2
AGAGATAT	0.0597
GGGAGCCC	-0.25

Sequence	PBM E-score
AGCCATGA	0.0805
AACATTTA	0.0236
CAGATTAG	-0.0964
TAACTTCA	0.0665
CTGTTGTA	0.086
AAAGAACA	0.038
GATTGGGA	-0.112
CTCATACC	0.0526
GATGTCGC	0.00641
CTGGTGGC	0.00474
CGCTAGTA	0.0319
ACTTCTTG	0.0237
GCTTCACA	-0.0463
AATCTCAG	-0.0894
GCGAGCAC	0.0453
GCTCAAAC	0.0315
AGTCGCAT	0.00245
ATTATGAA	0.155
CGTTTTCA	0.124
GTGTTCGA	0.202
AAACGTCC	-0.0517
ATAAAATA	0.161
CCGCCCCG	0.309
ACGATGCG	-0.167
AAGTAGAT	0.108

Sequence	PBM E-score
CGCTCACG	0.0462
ACGTGAAT	0.00639
ACTGCCTG	-0.105
AACGTACG	-0.038
GCGGCTAC	0.0658
CGTCTACC	-0.0946
GTTCCGCA	0.152
AGGTGGAC	-0.143
GAACGGTA	-0.0259
ATCTTGAC	0.0304
AATTGGCA	-0.0168
AGGGGTTC	0.169
CCAGTACA	0.0288
CGTGAATC	-0.112
GGTCCAGA	0.125
CACGCTGA	-0.0997
CAGCGCAG	-0.0797
AAGACTCG	-0.0824
CAAGACCC	0.0254
